Measurements from the supplement of paper PMC12067093, “Discovery and optimisation of a covalent ligand for TRIM25 and its application to targeted protein ubiquitination” (Chemical Science, 2025).
This is one part of the list.

By UniProt entry, the sequences of proteins in these tests, tags left out. Where a name states a change or a piece, a line headed by the entry shows the natural chain unless it says otherwise.
UniProt P33991: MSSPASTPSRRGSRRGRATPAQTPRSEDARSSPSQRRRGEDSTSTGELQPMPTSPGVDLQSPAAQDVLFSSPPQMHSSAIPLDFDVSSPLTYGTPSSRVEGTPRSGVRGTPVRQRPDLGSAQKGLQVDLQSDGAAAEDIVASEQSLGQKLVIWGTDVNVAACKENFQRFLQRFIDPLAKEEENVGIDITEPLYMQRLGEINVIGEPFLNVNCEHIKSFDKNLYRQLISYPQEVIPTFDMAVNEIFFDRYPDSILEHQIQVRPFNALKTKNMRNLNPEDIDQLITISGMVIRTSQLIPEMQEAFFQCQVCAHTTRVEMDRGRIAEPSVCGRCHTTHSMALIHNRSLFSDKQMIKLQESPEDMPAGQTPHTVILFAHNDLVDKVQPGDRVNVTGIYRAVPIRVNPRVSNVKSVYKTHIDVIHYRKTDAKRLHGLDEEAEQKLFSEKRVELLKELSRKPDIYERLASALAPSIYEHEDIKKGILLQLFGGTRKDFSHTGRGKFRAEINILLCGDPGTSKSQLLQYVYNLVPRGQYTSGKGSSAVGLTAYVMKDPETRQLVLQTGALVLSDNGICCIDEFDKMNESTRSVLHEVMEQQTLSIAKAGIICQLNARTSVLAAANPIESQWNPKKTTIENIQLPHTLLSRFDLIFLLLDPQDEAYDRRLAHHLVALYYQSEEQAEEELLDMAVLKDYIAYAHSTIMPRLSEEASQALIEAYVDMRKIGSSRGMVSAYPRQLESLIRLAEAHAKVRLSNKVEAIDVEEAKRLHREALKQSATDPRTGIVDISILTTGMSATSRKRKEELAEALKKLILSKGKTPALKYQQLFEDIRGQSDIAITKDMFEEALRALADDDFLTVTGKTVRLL
UniProt Q9BTE3: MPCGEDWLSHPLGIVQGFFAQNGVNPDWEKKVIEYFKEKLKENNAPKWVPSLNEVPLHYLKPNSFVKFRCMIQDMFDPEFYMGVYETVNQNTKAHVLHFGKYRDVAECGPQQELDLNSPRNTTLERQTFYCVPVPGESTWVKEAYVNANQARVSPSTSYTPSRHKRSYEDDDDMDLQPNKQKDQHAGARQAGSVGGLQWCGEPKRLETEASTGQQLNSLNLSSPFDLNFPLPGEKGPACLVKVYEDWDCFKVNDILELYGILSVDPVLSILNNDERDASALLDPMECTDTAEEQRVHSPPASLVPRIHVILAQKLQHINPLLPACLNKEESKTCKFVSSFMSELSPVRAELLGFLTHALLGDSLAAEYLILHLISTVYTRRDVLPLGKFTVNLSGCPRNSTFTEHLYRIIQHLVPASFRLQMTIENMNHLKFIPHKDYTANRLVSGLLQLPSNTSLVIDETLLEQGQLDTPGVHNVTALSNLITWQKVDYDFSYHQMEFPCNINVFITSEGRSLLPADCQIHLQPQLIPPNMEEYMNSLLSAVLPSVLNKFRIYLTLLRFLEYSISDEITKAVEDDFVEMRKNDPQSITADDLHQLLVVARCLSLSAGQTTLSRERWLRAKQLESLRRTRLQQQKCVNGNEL
UniProt O43513: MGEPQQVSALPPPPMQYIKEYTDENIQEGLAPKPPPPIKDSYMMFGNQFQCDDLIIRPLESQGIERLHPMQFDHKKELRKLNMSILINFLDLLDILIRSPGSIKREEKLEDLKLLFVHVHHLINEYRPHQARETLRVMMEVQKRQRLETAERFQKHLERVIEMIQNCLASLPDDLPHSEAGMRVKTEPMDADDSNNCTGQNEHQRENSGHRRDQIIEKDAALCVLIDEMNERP
UniProt Q15648, whole entry, looked up: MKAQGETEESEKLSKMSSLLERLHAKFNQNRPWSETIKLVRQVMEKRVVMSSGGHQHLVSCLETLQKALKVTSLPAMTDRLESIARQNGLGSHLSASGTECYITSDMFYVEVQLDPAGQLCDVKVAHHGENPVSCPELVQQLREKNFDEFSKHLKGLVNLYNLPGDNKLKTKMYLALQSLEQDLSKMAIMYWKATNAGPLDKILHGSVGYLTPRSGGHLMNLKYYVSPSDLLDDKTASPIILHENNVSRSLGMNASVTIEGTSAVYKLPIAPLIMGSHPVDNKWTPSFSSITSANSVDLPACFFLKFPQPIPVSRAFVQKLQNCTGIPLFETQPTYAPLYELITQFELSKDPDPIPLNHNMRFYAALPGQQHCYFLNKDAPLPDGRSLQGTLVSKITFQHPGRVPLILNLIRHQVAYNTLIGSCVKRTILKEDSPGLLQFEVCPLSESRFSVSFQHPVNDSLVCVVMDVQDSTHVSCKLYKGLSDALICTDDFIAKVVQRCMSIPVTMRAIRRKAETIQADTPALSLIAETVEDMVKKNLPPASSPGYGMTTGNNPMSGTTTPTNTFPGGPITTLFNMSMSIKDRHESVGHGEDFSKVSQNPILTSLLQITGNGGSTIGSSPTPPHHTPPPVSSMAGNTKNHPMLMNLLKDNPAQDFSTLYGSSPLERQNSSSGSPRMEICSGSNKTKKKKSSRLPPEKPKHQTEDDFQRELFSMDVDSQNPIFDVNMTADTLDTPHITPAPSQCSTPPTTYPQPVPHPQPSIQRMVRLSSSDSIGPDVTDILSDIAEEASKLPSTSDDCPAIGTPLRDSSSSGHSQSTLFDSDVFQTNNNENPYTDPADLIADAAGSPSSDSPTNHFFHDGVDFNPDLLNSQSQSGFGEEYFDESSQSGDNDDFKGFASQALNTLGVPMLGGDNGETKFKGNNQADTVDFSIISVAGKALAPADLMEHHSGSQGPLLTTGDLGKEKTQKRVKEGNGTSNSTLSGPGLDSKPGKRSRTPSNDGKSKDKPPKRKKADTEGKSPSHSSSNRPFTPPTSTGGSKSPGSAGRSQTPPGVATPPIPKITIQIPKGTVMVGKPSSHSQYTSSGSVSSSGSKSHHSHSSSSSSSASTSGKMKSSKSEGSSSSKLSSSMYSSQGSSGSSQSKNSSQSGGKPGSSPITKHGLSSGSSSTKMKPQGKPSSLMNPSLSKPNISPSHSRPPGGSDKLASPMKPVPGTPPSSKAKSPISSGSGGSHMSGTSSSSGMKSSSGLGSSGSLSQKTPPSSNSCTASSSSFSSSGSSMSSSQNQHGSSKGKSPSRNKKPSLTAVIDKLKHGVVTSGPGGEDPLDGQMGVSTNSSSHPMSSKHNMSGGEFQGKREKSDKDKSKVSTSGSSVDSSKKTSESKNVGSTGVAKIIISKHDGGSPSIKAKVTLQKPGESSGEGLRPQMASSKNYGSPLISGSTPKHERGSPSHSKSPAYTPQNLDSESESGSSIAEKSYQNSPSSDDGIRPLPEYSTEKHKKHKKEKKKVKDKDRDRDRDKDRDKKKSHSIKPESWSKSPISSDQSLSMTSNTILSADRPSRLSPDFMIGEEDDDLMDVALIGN
UniProt Q10469: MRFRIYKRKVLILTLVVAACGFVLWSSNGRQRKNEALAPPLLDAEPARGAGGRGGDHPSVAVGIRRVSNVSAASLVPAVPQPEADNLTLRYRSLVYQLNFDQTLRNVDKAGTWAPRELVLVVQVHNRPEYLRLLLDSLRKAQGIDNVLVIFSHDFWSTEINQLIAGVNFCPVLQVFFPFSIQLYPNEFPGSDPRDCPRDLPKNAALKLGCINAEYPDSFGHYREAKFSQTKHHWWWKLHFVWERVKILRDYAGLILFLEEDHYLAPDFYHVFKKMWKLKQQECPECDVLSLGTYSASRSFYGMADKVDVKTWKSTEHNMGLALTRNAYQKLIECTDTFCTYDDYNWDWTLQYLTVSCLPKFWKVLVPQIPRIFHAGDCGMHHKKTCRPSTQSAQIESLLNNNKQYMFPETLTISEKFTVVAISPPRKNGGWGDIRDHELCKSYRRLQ
UniProt P25205: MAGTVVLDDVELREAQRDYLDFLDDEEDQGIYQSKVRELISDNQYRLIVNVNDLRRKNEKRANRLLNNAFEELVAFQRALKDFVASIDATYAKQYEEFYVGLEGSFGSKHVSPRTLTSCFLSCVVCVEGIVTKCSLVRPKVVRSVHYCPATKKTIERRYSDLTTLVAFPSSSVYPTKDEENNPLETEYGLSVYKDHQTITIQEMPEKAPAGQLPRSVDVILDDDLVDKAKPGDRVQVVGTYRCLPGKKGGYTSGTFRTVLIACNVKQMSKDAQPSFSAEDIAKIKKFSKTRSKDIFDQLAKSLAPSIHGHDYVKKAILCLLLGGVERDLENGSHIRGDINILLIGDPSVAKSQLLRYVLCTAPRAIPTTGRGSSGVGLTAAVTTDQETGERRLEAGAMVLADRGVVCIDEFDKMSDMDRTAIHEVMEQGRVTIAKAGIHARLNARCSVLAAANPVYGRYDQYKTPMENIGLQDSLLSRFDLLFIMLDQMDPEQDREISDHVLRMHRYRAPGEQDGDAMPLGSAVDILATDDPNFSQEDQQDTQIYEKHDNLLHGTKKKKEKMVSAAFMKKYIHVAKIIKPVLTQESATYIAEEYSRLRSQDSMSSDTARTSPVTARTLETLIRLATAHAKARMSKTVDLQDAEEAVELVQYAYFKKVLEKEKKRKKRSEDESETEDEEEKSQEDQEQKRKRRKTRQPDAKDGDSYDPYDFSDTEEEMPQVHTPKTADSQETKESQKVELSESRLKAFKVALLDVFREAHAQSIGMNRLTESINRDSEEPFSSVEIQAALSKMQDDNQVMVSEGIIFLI
UniProt P49736, whole entry, looked up: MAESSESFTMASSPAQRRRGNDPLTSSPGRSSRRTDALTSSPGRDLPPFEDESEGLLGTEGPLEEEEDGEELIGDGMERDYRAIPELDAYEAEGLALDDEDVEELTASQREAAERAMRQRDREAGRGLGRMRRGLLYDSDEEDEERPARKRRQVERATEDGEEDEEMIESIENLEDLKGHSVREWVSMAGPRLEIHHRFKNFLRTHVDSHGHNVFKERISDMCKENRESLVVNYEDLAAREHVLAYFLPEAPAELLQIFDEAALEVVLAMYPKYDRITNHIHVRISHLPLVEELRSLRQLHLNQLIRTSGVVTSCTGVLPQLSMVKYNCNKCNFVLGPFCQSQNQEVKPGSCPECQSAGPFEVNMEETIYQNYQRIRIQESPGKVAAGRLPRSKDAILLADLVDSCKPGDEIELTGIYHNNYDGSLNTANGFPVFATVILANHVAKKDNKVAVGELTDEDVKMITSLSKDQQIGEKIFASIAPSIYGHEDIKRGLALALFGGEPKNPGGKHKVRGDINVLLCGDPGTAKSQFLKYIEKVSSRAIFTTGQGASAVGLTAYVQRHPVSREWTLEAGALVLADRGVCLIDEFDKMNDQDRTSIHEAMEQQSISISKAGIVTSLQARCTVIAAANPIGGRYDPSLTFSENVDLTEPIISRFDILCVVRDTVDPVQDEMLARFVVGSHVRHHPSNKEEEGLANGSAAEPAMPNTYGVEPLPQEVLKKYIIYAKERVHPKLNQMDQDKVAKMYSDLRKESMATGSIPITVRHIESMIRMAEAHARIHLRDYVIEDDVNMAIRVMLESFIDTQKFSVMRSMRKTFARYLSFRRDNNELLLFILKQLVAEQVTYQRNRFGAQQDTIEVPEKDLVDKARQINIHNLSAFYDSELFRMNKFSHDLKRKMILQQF
UniProt Q7L2J0: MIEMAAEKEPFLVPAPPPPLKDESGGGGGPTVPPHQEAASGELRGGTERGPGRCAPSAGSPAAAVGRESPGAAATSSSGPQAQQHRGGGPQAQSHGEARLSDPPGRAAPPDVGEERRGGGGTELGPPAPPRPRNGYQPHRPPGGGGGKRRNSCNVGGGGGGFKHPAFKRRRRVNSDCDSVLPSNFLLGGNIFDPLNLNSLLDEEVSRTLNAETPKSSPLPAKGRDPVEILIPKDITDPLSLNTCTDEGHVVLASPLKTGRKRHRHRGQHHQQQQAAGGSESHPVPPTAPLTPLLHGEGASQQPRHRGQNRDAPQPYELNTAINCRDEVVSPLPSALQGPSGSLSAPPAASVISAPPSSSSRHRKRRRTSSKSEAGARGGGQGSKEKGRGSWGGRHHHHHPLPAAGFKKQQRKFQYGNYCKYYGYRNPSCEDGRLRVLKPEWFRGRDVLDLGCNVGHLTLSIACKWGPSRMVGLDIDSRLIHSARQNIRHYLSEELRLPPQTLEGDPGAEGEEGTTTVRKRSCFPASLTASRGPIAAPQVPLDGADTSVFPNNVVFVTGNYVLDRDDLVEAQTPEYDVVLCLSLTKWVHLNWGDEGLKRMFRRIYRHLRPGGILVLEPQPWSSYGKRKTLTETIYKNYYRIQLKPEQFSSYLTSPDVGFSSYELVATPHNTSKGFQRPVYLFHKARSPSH
UniProt P40926: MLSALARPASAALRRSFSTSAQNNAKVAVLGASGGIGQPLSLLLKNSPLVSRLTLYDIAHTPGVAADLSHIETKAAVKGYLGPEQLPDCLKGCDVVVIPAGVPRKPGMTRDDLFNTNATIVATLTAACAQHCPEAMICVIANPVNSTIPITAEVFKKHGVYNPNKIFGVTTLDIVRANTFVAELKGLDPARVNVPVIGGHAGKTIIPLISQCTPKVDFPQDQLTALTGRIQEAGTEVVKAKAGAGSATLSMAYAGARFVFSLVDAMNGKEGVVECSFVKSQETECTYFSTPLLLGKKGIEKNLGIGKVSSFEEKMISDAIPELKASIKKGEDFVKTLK

Compound: Cc1cc(ccc1-c1ccccc1)C(=O)N1CCCN(CC1)C(=O)CCl [compound 10]
Test: probe-labelled cysteine peptide fold change vs DMSO (competition) (log2 fold change); higher = less target engagement (more negative = stronger competition)
Details: THP-1, incubation time: 4 h
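Note: competitive profiling in live THP-1 cells: cysteine peptides tagged with an iodoacetamide desthiobiotin (IA-DTB) probe, intensity after compound treatment relative to DMSO-treated cells.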

Row | Target | probe-labelled cysteine peptide fold change (10 µM) | probe-labelled cysteine peptide fold change (50 µM)
1 | METAP2_P50579_263_IIDCAFTVTFNPK (UniProt P50579) | 0.171 | 0.0277
2 | MDH1_P40925_154_ENFSCLTR (UniProt P40925) | -0.141 | -0.0408
3 | MEF2D_Q14814_41_AYELSVLCDCEIALIIFNHSNK (UniProt Q14814) | 0.134 | 0.377
4 | METAP1_P53582_22_LQCPTCIK (UniProt P53582) | 0.0622 | -0.162
5 | MCM4_P33991_509_AEINILLCGDPGTSK (UniProt P33991) | -0.161 | 0.162
6 | MCMBP_Q9BTE3_325_LQHINPLLPACLNK (UniProt Q9BTE3) | -0.451 | -1.87
7 | METAP1_P53582_14_VCETDGCSSEAK (UniProt P53582) | -0.107 | -0.596
8 | MGA_Q8IWI9_1071_RQPAHCR (UniProt Q8IWI9) | -0.00175 | -0.352
9 | MED7_O43513_223_DAALCVLIDEMNERP (UniProt O43513) | -0.245 | 0.168
10 | MCM6_Q14566_242_AEAVESAQAGDKCDFTGTLIVVPDVSK (UniProt Q14566) | -0.0918 | -0.486
11 | MDN1_Q9NU22_5386_QYQICLAIDDSSSMVDNHTK (UniProt Q9NU22) | 0.247 | 0.136
12 | MED1_Q15648_302_WTPSFSSITSANSVDLPACFFLK (UniProt Q15648) | 0.18 | 0.168
13 | MED30_Q96HR3_34_EVNTASLCR (UniProt Q96HR3) | -0.0445 | 0.173
14 | METTL14_Q9HCE5_288_EHCLMGIK (UniProt Q9HCE5) | 0.0181 | 0.0146
15 | MGAT2_Q10469_386_TCRPSTQSAQIESLLNNNK (UniProt Q10469) | -0.133 | -0.101
16 | MCM7_P33993_378_GNINICLMGDPGVAK (UniProt P33993) | -0.0869 | -0.0399
17 | MCM3_P25205_148_SVHYCPATK (UniProt P25205) | -0.0106 | -0.143
18 | METTL13_Q8N6R0_273_LGSVSLDLCDGDTGEPR (UniProt Q8N6R0) | -0.0221 | -0.00612
19 | MCM4_P33991_306_TSQLIPEMQEAFFQCQVCAHTTR (UniProt P33991) | 0.177 | -0.0925
20 | MDN1_Q9NU22_333_SLQTLAMAVASQNAVLLEGPIGCGK (UniProt Q9NU22) | -0.182 | 0.136
21 | MCM4_P33991_306+309_TSQLIPEMQEAFFQCQVCAHTTR (UniProt P33991) | 0.0367 | -0.127
22 | MED18_Q9BUE0_43_GLCDNMEPETFLDHEMVFLLK (UniProt Q9BUE0) | 0.00665 | 0.113

Individual results from the results shown:
MCM7_P33993_378_GNINICLMGDPGVAK (UniProt P33993) – probe-labelled cysteine peptide fold change (50 µM): -0.0399
MCMBP_Q9BTE3_325_LQHINPLLPACLNK (UniProt Q9BTE3) – probe-labelled cysteine peptide fold change (50 µM): -1.87
MED1_Q15648_302_WTPSFSSITSANSVDLPACFFLK (UniProt Q15648) – probe-labelled cysteine peptide fold change (10 µM): 0.18

More records:

Row | Target | probe-labelled cysteine peptide fold change (10 µM) | probe-labelled cysteine peptide fold change (50 µM)
23 | METTL3_Q86U44_326_HTDESLGDCSFLNTCFHMDTCK (UniProt Q86U44) | 0.143 | -0.0713
24 | MGAT2_Q10469_440_DHELCK (UniProt Q10469) | -0.249 | 0.259
25 | ME1_P48163_110_FMPIVYTPTVGLACQQYSLVFR (UniProt P48163) | -0.26 | 0.641
26 | MED21_Q13503_103_LEEENHEAATCLEDVVYR (UniProt Q13503) | 0.284 | 0.455
27 | MCM2_P49736_584_GVCLIDEFDK (UniProt P49736) | 0.0289 | 0.142
28 | MEPCE_Q7L2J0_244_DITDPLSLNTCTDEGHVVLASPLK (UniProt Q7L2J0) | 0.0803 | -0.237
29 | MGRN1_O60291_297_HLCLCTSCADTLR (UniProt O60291) | -0.168 | -0.164
30 | MCM3AP_O60318_1839_STECAQEGR (UniProt O60318) | -0.064 | -0.0739
31 | MED1_Q15648_424_HQVAYNTLIGSCVK (UniProt Q15648) | -0.223 | 0.359
32 | MCM2_P49736_624_CTVIAAANPIGGR (UniProt P49736) | 0.12 | 0.0803
33 | MEPCE_Q7L2J0_452_DVLDLGCNVGHLTLSIACK (UniProt Q7L2J0) | 0.0401 | 0.348
34 | MCM5_P33992_397_CSPIGVYTSGK (UniProt P33992) | 0.0268 | 0.00671
35 | MCM6_Q14566_91_VYPYLCR (UniProt Q14566) | 0.0185 | 0.16
36 | MDH2_P40926_89_GYLGPEQLPDCLK (UniProt P40926) | 0.117 | -0.0466
37 | MESD_Q14696_180_CADVTLEGQVYPGK (UniProt Q14696) | -0.0653 | 0.0953
38 | MED7_O43513_197_TEPMDADDSNNCTGQNEHQR (UniProt O43513) | -0.198 | 0.0445
39 | MCM6_Q14566_161_THPVHPELVSGTFLCLDCQTVIRDVEQQFK (UniProt Q14566) | 0.14 | -0.457
40 | MCM3_P25205_263_TVLIACNVK (UniProt P25205) | 0.0227 | 0.0385
41 | MCM6_Q14566_721_LGFSEYCR (UniProt Q14566) | 0.08 | -0.00309
42 | MCM4_P33991_331_CHTTHSMALIHNR (UniProt P33991) | 0.169 | -0.0384
43 | MED23_Q9ULK4_712_ATHVTDFFTGSDSIQGTWCK (UniProt Q9ULK4) | 0.13 | 0.304
44 | MED15_Q96RN5_660_TFVPAMTAIHGPPITAPVVCTR (UniProt Q96RN5) | 0.12 | -0.328
